1 molecule from article PMC12594589 can be followed below.

Protein sequences, listed by entry. Tags and fused reporters are not part of them.
UniProt P16989: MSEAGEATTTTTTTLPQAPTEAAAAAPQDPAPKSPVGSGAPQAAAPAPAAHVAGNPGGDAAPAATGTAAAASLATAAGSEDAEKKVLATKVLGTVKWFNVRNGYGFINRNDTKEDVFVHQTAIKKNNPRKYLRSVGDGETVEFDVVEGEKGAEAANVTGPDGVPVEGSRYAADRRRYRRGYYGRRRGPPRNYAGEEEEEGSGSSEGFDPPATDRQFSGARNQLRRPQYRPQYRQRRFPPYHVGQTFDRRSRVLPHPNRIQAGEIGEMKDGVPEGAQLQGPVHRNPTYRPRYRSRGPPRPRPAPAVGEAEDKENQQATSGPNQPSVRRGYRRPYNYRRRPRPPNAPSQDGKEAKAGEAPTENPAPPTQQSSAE

These are yes or no findings as the source states them, for the method shown. In cells and extracts the contact can be indirect. Some entries that bind do so weakly or less than the wild type.

In this assay the target is Flag-YBX3 (wild type, full length) (UniProt P16989). Briefly: co-IP; co-IP of TTC36 with FLAG-tagged full-length or truncated YBX3 constructs (#1, #2, #3); cells not given.

B1: TTC36 (as used in the co-IP with YBX3 truncation mutants) (protein, UniProt A6NLP5 1-189)
chain: MGTPNDQAVLQAIFNPDTPFGDIVGLDLGEEAEKEEREEDEVFPQAQLEQSKALELQGVMAAEAGDLSTALERFGQAICLLPERASAYNNRAQARRLQGDVAGALEDLERAVELSGGRGRAARQSFVQRGLLARLQGRDDDARRDFERAARLGSPFARRQLVLLNPYAALCNRMLADMMGQLRRPRDSR
B1: the binding result is reported as “binds”.
